Measured values reported in patent publication US12391701B2, “Chromene-based compounds, methods and uses thereof” (University of Minho, priority 2019, dated 2025).

Key:
[1] = test system: TNBC cell line MDA-MB-468; test: Cell viability assay (MTS), MDA-MB-468; assay type: cell-based, human; conditions: selectivity index
Excerpt: (§1) In an embodiment, for a comparison study, monomers and respective dimers were selected and further evaluated in Hs578t and MDA-MB-468 breast cell lines. […] These cell lines correspond to the basal-like subtype of breast cancer, included in the known triple negative subtype, since they are negative for Estrogen receptor (ER), progesterone receptor (PR) and Human epidermal growth factor receptor 2 (HER2) molecular markers. The clinical behaviour of these breast cancer subtype is very aggressive and there is still no specific molecular therapy available.
In an embodiment, three human breast cancer cell lines Hs578T, MDA-MB-468 and MCF-7, and a normal breast cell line MCF-10A, were obtained from ATCC (American Type Culture Collection). The cancer cell lines were cultured in Dulbecco's modified Eagle medium, 4.5 g/l glucose (DMEM, Gibco) supplemented with 10% heating inactivated Fetal Bovine Serum (FBS, Gibco) and 1% antibiotic solution (Penicillin-Streptomycin, Gibco). The normal cell line was cultured in Dulbecco's Modified Eagle Medium: Nutrient Mixture F-12 (DMEM/F12, Gibco) supplemented with 5% heating inactivated FBS (Gibco), 1% antibiotic solution (Penicillin-Streptomycin, Gibco), 1% steroid hormone (Hydrocortisone, Sigma-Aldrich), 0.1% peptide hormone (Insulin, Sigma-Aldrich) and 0.01% protein complex (Cholera Toxin, Gibco). Two distinct human acute myeloid leukemia (AML) cell lines, HL-60 (FAB M2) and KG-1 (erythroleukemia-FAB M6), and one human lymphoblastic leukemia (ALL) cell line, Jurkat (T cell type), were also used. These three cell lines were obtained from German Collection of Microorganisms and Cell cultures (DMSZ®, Deutsche Sammlung von Mikroorganismen and Zellkulturen in German). Cells were cultured in RPMI 1640 medium (Biochrom®-Merck Millipore) supplemented with 10% heating inactivated FBS (Biochrom®-Merck Millipore) and 1% antibiotic/antimitotic mixture (Invitrogen®). Three human glioblastoma (GBM) cell line models, two established and commercially available cell lines (U87MG and GAMG, kind gift from Rui M. Reis) and one primary GBM culture (GLIB) were also used. GBM cells were cultures in DMEM (Biochrom-Merck Millipore), all supplemented with 10% FBS. The Renal cell carcinoma cell lines A498, 786-O, Caki-2 and HK2 were obtained from ATCC. The cancer cell line A498 was cultured in MEM medium (Biochrom®-Merck Millipore), 786-O was cultured in RPMI 1640 medium (Biochrom®-Merck Millipore), Caki-2 was cultured in Mc Coys medium (Biochrom®-Merck Millipore) and HK2 was cultured in RPMI 1640 medium (Biochrom®-Merck Millipore). All the media were supplemented with 10% heat inactivated FBS (Biochrom®-Merck Millipore) and 1% antibiotic/antimitotic mixture (Invitrogen®). All cells were grown in a humidified incubator at 37° C. and 5% CO2. […]

[2] = test system: renal carcinoma cell line Caki-2; test: Cell viability (sulforhodamine B), Caki-2; assay type: cell-based; conditions: selectivity index
Protocol: (§2) In an embodiment, the antiproliferative activity of the compounds was further determined against renal carcinoma cell lines and non-neoplastic kidney cell line.
(§3) In an embodiment, three human breast cancer cell lines Hs578T, MDA-MB-468 and MCF-7, and a normal breast cell line MCF-10A, were obtained from ATCC (American Type Culture Collection). The cancer cell lines were cultured in Dulbecco's modified Eagle medium, 4.5 g/l glucose (DMEM, Gibco) supplemented with 10% heating inactivated Fetal Bovine Serum (FBS, Gibco) and 1% antibiotic solution (Penicillin-Streptomycin, Gibco). The normal cell line was cultured in Dulbecco's Modified Eagle Medium: Nutrient Mixture F-12 (DMEM/F12, Gibco) supplemented with 5% heating inactivated FBS (Gibco), 1% antibiotic solution (Penicillin-Streptomycin, Gibco), 1% steroid hormone (Hydrocortisone, Sigma-Aldrich), 0.1% peptide hormone (Insulin, Sigma-Aldrich) and 0.01% protein complex (Cholera Toxin, Gibco). Two distinct human acute myeloid leukemia (AML) cell lines, HL-60 (FAB M2) and KG-1 (erythroleukemia-FAB M6), and one human lymphoblastic leukemia (ALL) cell line, Jurkat (T cell type), were also used. These three cell lines were obtained from German Collection of Microorganisms and Cell cultures (DMSZ®, Deutsche Sammlung von Mikroorganismen and Zellkulturen in German). Cells were cultured in RPMI 1640 medium (Biochrom®-Merck Millipore) supplemented with 10% heating inactivated FBS (Biochrom®-Merck Millipore) and 1% antibiotic/antimitotic mixture (Invitrogen®). Three human glioblastoma (GBM) cell line models, two established and commercially available cell lines (U87MG and GAMG, kind gift from Rui M. Reis) and one primary GBM culture (GLIB) were also used. GBM cells were cultures in DMEM (Biochrom-Merck Millipore), all supplemented with 10% FBS. The Renal cell carcinoma cell lines A498, 786-O, Caki-2 and HK2 were obtained from ATCC. The cancer cell line A498 was cultured in MEM medium (Biochrom®-Merck Millipore), 786-O was cultured in RPMI 1640 medium (Biochrom®-Merck Millipore), Caki-2 was cultured in Mc Coys medium (Biochrom®-Merck Millipore) and HK2 was cultured in RPMI 1640 medium (Biochrom®-Merck Millipore). All the media were supplemented with 10% heat inactivated FBS (Biochrom®-Merck Millipore) and 1% antibiotic/antimitotic mixture (Invitrogen®). All cells were grown in a humidified incubator at 37° C. and 5% CO2. For all assays, DMSO (Dimethyl Sulfoxide, Sigma-Aldrich) controls were used.
(§4) In an embodiment, cell viability assays were performed. MCF-7, Hs578T and MCF-10A cells were plated in triplicate in 96-multiwell culture plates, at 3000 cells per mL, or 5000 cells per mL for MDA-MB-468 (100 μL/well). The cells were then allowed to adhere in complete medium, over a period of 18-20 hours. Cells were subsequently treated with 7 different concentrations (from 0.1 to 40 μM or 5 to 60 μM) of compounds or control in fresh medium. HL-60, KG-1 and Jurkat cell lines were plated in 96-multiwell culture plates at 50.000 cells/100 μL per well and treated with different concentrations (from 0.001 to 2 μM) of the compounds described (or control). Cells were plated, in triplicate, at an initial density of 2000 cells/well for GAMG, 4000 cells/well for GL18 and 6000 cells/well for U87MG, in 96-well plates, and allowed to adhere for 18-20 hours. Cells were then treated with different concentrations of the compounds (0.005 to 100 μM) or with control. A498 and 786-O cells were plated at 2000 cells per mL, Caki-2 cells were plated at 3000 cells per mL and HK2 cells were plated at 2000 cells per mL in triplicate, in 96-multiwell culture plates (100 μL/well), and allowed to adhere over a period of 18-20 hours in complete medium. The cells were then treated with 7 different concentrations (from 0.1 to 40 μM or 5 to 60 μM) of compounds or control in fresh medium. […]

[3] = test system: renal carcinoma cell line A498; test: Cell viability (sulforhodamine B), A498; assay type: cell-based; conditions: selectivity index
Protocol: as §2, §3, §4

[4] = test system: breast cancer cell line MCF-7; test: Cell viability assay (MTS), MCF-7; assay type: cell-based, human; conditions: selectivity index MCF-10A vs MCF-7; SI=(IC50 normal−IC50 cancer)/IC50 cancer
Protocol: In an embodiment, the cell growth inhibition and IC50 values of the synthesised and isolated chromene-based compounds were determined as part of the evaluation of the antiproliferative activity of the isolated agents. A complete study on the structure-activity relationship was performed for all the synthesised compounds. The antiproliferative activity against MCF-7 breast cancer cell lines were analysed. […] The non-neoplastic cell line MCF-10A was also used to determine the selectivity of the compounds for the tumour cells. For compounds with an IC50 value (concentration required to reduce cell viability by 50%) higher than 20 μM, the IC50 value was not determined. Selectivity index (SI) was calculated in order to evaluate the cytotoxicity of the tested compounds.
as §3
In an embodiment, cell viability assays were performed. MCF-7, Hs578T and MCF-10A cells were plated in triplicate in 96-multiwell culture plates, at 3000 cells […], or 5000 cells […] for MDA-MB-468 (100 μL/well). The cells were then allowed to adhere in complete medium, over a period of 18-20 hours. Cells were subsequently treated with 7 different concentrations (from 0.1 to 40 μM or 5 to 60 μM) of compounds or control in fresh medium. HL-60, KG-1 and Jurkat cell lines were plated in 96-multiwell culture plates at 50.000 cells/100 μL per well and treated with different concentrations (from 0.001 to 2 μM) of the compounds described (or control). Cells were plated, in triplicate, at an initial density of 2000 cells/well for GAMG, 4000 cells/well for GL18 and 6000 cells/well for U87MG, in 96-well plates, and allowed to adhere for 18-20 hours. […]

[5] = test system: TNBC cell line MDA-MB-231; test: Cell viability assay, MDA-MB-231; assay type: cell-based; conditions: selectivity index
TNBC cell line Hs578t = test: Cell viability assay (MTS), Hs578t; assay type: cell-based, human; conditions: selectivity index
Excerpt: as §1, §3
In an embodiment, cell viability assays were performed. MCF-7, Hs578T and MCF-10A cells were plated in triplicate in 96-multiwell culture plates, at 3000 cells […], or 5000 cells […] for MDA-MB-468 (100 μL/well). The cells were then allowed to adhere in complete medium, over a period of 18-20 hours. Cells were subsequently treated with 7 different concentrations (from 0.1 to 40 μM or 5 to 60 μM) of compounds or control in fresh medium. HL-60, KG-1 and Jurkat cell lines were plated in 96-multiwell culture plates at 50.000 cells/100 μL per well and treated with different concentrations (from 0.001 to 2 μM) of the compounds described (or control). Cells were plated, in triplicate, at an initial density of 2000 cells/well for GAMG, 4000 cells/well for GL18 and 6000 cells/well for U87MG, in 96-well plates, and allowed to adhere for 18-20 hours. Cells were then treated with different concentrations of the compounds (0.005 to 100 μM) or with control. […]

[6] = test system: renal carcinoma cell line 786-O; test: Cell viability (sulforhodamine B), 786-O; assay type: cell-based; conditions: selectivity index
Protocol: as §2, §3, §4

SMILES	SI MDA-MB-468 vs MCF-10A [1]	SI HK2 vs Caki-2 [2]	SI HK2 vs A498 [3]	SI [4]	SI MDA-MB-231 vs MCF-10A [5]	SI Hs578t vs MCF-10A (TNBC cell line Hs578t)	SI HK2 vs 786-O [6]
COc1cccc2c1Oc1nc(-c3ccc(F)cc3)[nH]c1C2C1c2cccc(OC)c2Oc2nc(-c3ccc(F)cc3)[nH]c21 (stereo not shown) [MC406, 2,2′-bis(4-fluorophenyl)-5,5′-dimethoxy-1,1,9,9′-tetrahydro-9,9′-bichromeno[2,3-]imidazoles]	38.7	0.74	ns	62.6	38.9	238.8	2.69
COc1cccc2c1Oc1nc(-c3ccc(Br)cc3)[nH]c1C2 [MC408, 2-(4-bromophenyl)-5-methoxy-3,9-dihydrochromeno[2,3-d]imidazoles]	109.7	38.29	24.00	3.8	0.2	62.6	53.59
COc1cccc2c1Oc1nc(-c3ccc(F)cc3)[nH]c1C2 [MC409, 2-(4-fluorophenyl)-5-methoxy-3,9-dihydrochromeno[2,3-d]imidazoles]	118.0	8.70	5.23	21.0	4.3	51.8	6.04
COc1cccc2c1Oc1nc(-c3ccc(Cl)cc3)[nH]c1C2 [MC412, 2-(4-chlorophenyl)-5-methoxy-3,9-dihydrochromeno[2,3-d]imidazoles]	–	40.82	4.60	3.0	0.04	0.8	49.97
COc1cccc2c1Oc1nc(-c3ccc(O)cc3)[nH]c1C2 [MC413, 4-(5-methoxy-3,9-dihydrochromeno[2,3-d]imidazol-2-yl)phenol]	–	25.92	9.70	>17	>30	>19	13.09
CCOc1ccc(-c2nc3c([nH]2)Cc2cccc(OC)c2O3)cc1 [MC415, 2-(4-ethoxyphenyl)-5-methoxy-3,9-dihydrochromeno[2,3-d]imidazoles]	–	83.52	43.24	0.2	0.3	2.3	22.71
COc1cccc2c1Oc1nc(-c3ccc(Br)cc3)[nH]c1C2C1c2cccc(OC)c2Oc2nc(-c3ccc(Br)cc3)[nH]c21 (stereo not shown) [MC421, 2,2′-bis(4-bromophenyl)-5,5′-dimethoxy-1,1,9,9′-tetrahydro-9,9′-bichromeno[2,3-]imidazoles]	>67	4.78	6.36	>96	>9	>850	31.33
